Data reported in article PMC9359528, “DNA binding by the Rad9A subunit of the Rad9-Rad1-Hus1 complex”.

Biological target: T1, R150A Rad9A 94-266 (Homo sapiens) (UniProt Q99638)
T1 sequence (looked up): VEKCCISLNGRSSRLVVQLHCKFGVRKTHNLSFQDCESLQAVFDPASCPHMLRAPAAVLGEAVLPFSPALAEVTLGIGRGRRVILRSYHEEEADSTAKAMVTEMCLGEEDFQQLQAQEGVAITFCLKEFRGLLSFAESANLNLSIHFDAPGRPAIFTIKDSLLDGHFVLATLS
Test: EMSA
Details: protein likely insoluble (DLS PDI 44%); EMSA: 20 mM Tris-HCl pH 7.6, 80 mM NaCl, 1 mM DTT, 1 mM EDTA, 1.5% glycerol, 200 ng/ml poly dI/dC, 50 ug/ml BSA, 10 nM DNA; 6% native PAGE in 50 mM Tris-borate pH 8.3; recombinant protein; residues 94-266; protein details: His; label: 5'-fluorescein (6-carboxyfluorescein) on HC40

Sequence: CCGAGGAATTCGCCTTCTGCTCCATAGCCACTGGTTGTAG (double strand) [HC40/HG40]
- binding result: no binding

No signal at the amounts used counts as a negative. Protein sequences can lack the tags named with them.
